Measured values taken from the supplement of paper PMC5662767.
Structures can show the parent of a compound that is named as a salt. The list shows a part of the results. Baselines shift from plate to plate; read single values as rough.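 A clonal Drosophila S2 line expresses Smoothened bearing circularly permuted GFP in its cytoplasmic tail; Hh-driven phosphorylation opens an inhibitory loop, making it fluoresce. Flow cytometry measured per-cell fluorescence, normalized to Hh-stimulated untreated cells. Hits were inhibitor groups with shared pathway targets that consistently shifted fluorescence, not individual compounds.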

System: Drosophila S2 cl14 SmoIP sensor cells
Assay: normalized SmoIP GFP fluorescence (untreated unstimulated = 0%, untreated Hh-stimulated = 100%); higher = more Smo activation sensor fluorescence
Settings: compound concentration: 15 uM, 24 h
[1] = stimulation: Hh conditioned medium (+Hh)
[2] = stimulation: mock conditioned medium (-Hh)

Compound | normalized SmoIP GFP fluorescence [1] [%] | normalized SmoIP GFP fluorescence [2] [%]
CCc1cc(Nc2nccc(-c3c(-c4ccc(OC)c(C(=O)Nc5c(F)cccc5F)c4)nc4ccccn34)n2)c(OC)cc1N1CCC(N2CCN(S(C)(=O)=O)CC2)CC1 | 211 | 89.5
CC1CCN(CC[C@H]2CCCN2S(=O)(=O)c2cccc(O)c2)CC1 | 119 | -2.2
COCCCOc1cc(C[C@@H](C[C@H](N)[C@@H](O)C[C@H](C(=O)NCC(C)(C)C(N)=O)C(C)C)C(C)C)ccc1OC [Aliskiren-hemifumarate] | 137 | -16.1
Nc1nc(CC(=O)Nc2ccc(CCNC[C@H](O)c3ccccc3)cc2)cs1 [mirabegron-ym178] | 122 | 2.24
NCCc1c[nH]cn1 [histamine-2hcl] | 114 | -0.775
CCOC(=O)[C@H]1O[C@@H]1C(=O)N[C@@H](CC(C)C)C(=O)NCCC(C)C [Aloxistatin] | 146 | 59.1
Cc1cc(C#N)cc(C)c1Oc1nc(Nc2ccc(C#N)cc2)nc(N)c1Br [etravirine-tmc125] | 154 | 60
Cn1cnc(N)c2ncnc1-2 [3-methyladenine] | 123 | -3.9
CCCCOc1ccc(CC(=O)NO)cc1 [bufexamac] | 116 | -3.16
CN(C)CCC(c1ccc(Cl)cc1)c1ccccn1 (stereo unspecified) [Chlorpheniramine-maleate] | 129 | 0.334
NC(=O)c1cnc(N[C@@H]2CCCC[C@@H]2N)nc1Nc1cccc(-n2nccn2)c1 | 253 | 51.5
CC(=O)N[C@@H](CS)C(=O)O [Acetylcysteine] | 131 | 2.97
O=c1cc(-c2ccccc2)oc2cc(O)c(O)c(O)c12 [Baicalein] | 149 | -1.38
COc1cccc(Nc2c(C(N)=O)cnc3c(C)cc(S(=O)(=O)c4cccc(C(=O)N(C)C)c4)cc23)c1 | 152 | 19.1
COc1ccc(Cn2ccc3ccc(C(=O)NO)cc32)cc1 | 134 | 5.2
COc1ccc(COc2cc3oc(=O)c4cc(C(C)O)ccc4c3cc2OC)cc1 (stereo unspecified) [Palomid-529-P529] | 140 | -6.97
c1ccc(-c2nn3c(c2-c2ccnc4cc(OCCN5CCOCC5)ccc24)CCC3)nc1 | 99.1 | 1.24

Compound | normalized SmoIP GFP fluorescence [1] [%] | normalized SmoIP GFP fluorescence [2] [%]
CC(COc1ccccc1)N(CCCl)Cc1ccccc1 (stereo unspecified) [Phenoxybenzamine-hydrochloride] | 198 | 2.95
C[C@H](Oc1cc(-c2cnn(C3CCNCC3)c2)cnc1N)c1c(Cl)ccc(F)c1Cl [s-crizotinib] | 144 | 63.2
Cc1cc(Cn2cnc3c2CC(C(=O)O)N(C(=O)C(c2ccccc2)c2ccccc2)C3)ccc1N(C)C (stereo unspecified) | 112 | -3.16
CC1(C)CCC2=C(O1)c1ccccc1C(=O)C2=O [beta-lapachone] | 239 | 63.3
CCNC(=O)[C@H]1O[C@@H](n2cnc3c(N)nc(NCCc4ccc(CCC(=O)O)cc4)nc32)[C@H](O)[C@@H]1O | 120 | -9.58
OCCOCCN1CCN(C2=Nc3ccccc3Sc3ccccc32)CC1 [Quetiapine-fumarate(Seroquel)] | 122 | 0.785
COc1ccc(CNC(=O)Nc2ncc([N+](=O)[O-])s2)cc1 | 176 | -6.79
CC(C)c1cc(-c2n[nH]c(=O)n2-c2ccc3c(ccn3C)c2)c(O)cc1O [ganetespib-sta-9090] | 133 | 8.46
O=S(=O)(c1cccc2cnccc12)N1CCCNCC1 [Fasudil-HCl(HA-1077)] | 128 | 2.11
CCc1cccc(CC)c1NC(=O)N1Cc2[nH]nc(NC(=O)c3ccc(N4CCN(C)CC4)cc3)c2C1 | 170 | 10.4
CN1[C@@H]2CC[C@H]1C[C@@H](OC(c1ccccc1)c1ccccc1)C2 [benztropine-mesylate] | 136 | 18.4
CN1CCC(=C2c3ccccc3CC(=O)c3sccc32)CC1 [ketotifen-fumarate-zaditor] | 147 | 11.6
NC(=O)N1CCC(CC(=O)N2CCC(C3c4ncc(Br)cc4CCc4cc(Cl)cc(Br)c43)CC2)CC1 (stereo unspecified) | 154 | 77.4
CCCC(=O)OCOC(=O)C1=C(C)NC(C)=C(C(=O)OC)C1c1cccc(Cl)c1Cl (stereo unspecified) [cleviprex-clevidipine] | 116 | -12.7
NC1(Cc2ccc(Cl)cc2)CCN(c2ncnc3[nH]ccc23)CC1 | 121 | 47.5
Oc1ccc(-c2nc(-c3ccc(F)cc3)c(-c3ccncc3)[nH]2)cc1 | 159 | 38.5

2 neighbouring compounds out of the list so far, for reference:
Compound | normalized SmoIP GFP fluorescence [1] [%] | normalized SmoIP GFP fluorescence [2] [%]
CCCC(=O)OCOC(=O)C1=C(C)NC(C)=C(C(=O)OC)C1c1cccc(Cl)c1Cl (stereo unspecified) [cleviprex-clevidipine] | 116 | -12.7
NC1(Cc2ccc(Cl)cc2)CCN(c2ncnc3[nH]ccc23)CC1 | 121 | 47.5
